Data taken from doi:10.1101/855361.
These are yes or no findings as the source states them, for the method shown. Binding seen in cells or lysates may run through a third protein. Here binding means that the protein was enriched with, or labelled near, the bait; the list need not be complete. Sequences can lack the tags named with a protein.

Amino acid sequences for entries named in this document (tags omitted).
UniProt Q9UHD2: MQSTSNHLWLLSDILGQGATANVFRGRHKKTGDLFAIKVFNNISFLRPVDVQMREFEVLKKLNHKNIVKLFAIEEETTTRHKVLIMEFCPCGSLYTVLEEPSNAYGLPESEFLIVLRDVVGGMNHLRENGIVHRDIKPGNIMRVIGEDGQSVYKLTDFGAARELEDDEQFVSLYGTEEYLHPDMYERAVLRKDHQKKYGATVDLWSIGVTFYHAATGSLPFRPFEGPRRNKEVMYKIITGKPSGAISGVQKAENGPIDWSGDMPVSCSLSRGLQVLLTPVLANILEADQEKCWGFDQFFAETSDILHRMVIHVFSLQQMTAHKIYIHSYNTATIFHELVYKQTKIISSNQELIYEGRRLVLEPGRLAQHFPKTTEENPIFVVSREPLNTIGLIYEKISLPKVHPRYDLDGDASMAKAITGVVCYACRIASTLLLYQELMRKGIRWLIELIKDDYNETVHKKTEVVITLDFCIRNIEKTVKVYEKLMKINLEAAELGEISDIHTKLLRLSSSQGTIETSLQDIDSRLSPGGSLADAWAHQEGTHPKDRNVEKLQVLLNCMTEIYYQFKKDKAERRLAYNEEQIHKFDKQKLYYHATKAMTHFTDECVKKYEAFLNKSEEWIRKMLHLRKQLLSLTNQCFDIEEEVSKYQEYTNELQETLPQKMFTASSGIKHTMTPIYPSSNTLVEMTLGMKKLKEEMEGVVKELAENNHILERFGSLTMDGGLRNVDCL

Target: T1, HA-IKKε (IκB kinase ε, wild type) (human) (UniProt Q14164)
T1 sequence: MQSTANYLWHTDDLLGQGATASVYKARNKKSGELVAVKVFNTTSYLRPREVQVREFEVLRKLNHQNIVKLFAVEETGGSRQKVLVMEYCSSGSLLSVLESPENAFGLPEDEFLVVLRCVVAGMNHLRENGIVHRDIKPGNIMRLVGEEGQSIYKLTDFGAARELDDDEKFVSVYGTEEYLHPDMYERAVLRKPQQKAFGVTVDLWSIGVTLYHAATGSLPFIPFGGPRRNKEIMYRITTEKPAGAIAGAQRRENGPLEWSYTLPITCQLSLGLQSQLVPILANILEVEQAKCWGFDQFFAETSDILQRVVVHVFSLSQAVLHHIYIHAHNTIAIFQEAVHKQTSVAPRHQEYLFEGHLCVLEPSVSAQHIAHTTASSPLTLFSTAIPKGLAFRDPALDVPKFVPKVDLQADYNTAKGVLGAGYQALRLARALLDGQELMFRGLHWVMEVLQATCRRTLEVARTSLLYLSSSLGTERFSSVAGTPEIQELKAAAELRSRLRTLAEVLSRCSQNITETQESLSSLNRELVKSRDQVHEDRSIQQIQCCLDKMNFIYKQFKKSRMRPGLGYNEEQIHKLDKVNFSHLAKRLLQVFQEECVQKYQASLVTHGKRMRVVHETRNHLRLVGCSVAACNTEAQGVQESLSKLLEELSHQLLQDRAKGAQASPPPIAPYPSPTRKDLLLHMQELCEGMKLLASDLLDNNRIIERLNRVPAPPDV
Experiment: affinity purification with mass spectrometry

## TANK binding kinase 1 (TBK1) (from UniProt Q9UHD2 1-729) (enzyme)
  binding: binds
